At least one structure is not confirmed: it was looked up by name or label, or the drawing left a doubt.
System: cigarette smoke-induced pulmonary inflammation
Assay: Mouse model of COPD: cigarette smoke-induced pulmonary inflammation, intranasal chelator
Format: in vivo
Conditions: for lung weight: DFO 3.8 mg intranasally three times a day; for average BALF iron content: LA-ICP-MS

## CC(=O)N(O)CCCCCNC(=O)CCC(=O)N(O)CCCCCNC(=O)CCC(=O)N(O)CCCCCN [DFO, deferoxamine]
Cigarette smoke-exposed BALB/c mice, DFO 3.8 mg in 50 μl intranasally three times a day, two weeks
  total leukocyte count in BALF: significantly reduces this effect
Cigarette smoke-exposed BALB/c mice, two weeks
  lung weight: reduces the mean weight
Cigarette smoke-exposed BALB/c mice, two weeks, listed as CFO
  lung weight: protects against this effect
Cigarette smoke-exposed BALB/c mice
  average BALF iron content: reduces average BALF iron content
Cigarette smoke-exposed BALB/c mice, listed as deferoxamine
  average BALF iron content: reduces this effect
Six of the seven mice treated with DFO
  BALF iron content of individual mice: at the same level as that of air-exposed mice

From patent US11491126B2, “Method for reducing lung inflammation” (priority 2017, dated 2022)
